Results from patent US20190169305A1 (TEIKYO HEISEI UNIVERSITY, published 2019).
No constants are given. Whether binding was seen depends on the method and setting. Some results given as binding are weak or reduced against the parent protein; the word gives no strength. Sequences can lack the tags named with a protein.

What was measured:
[1] = molecular target: human TRAIL-R2:alpaca Fc (hTRAIL-R2:Fc) (human; Lama pacos (alpaca)); assay: ELISA, hTRAIL-R2:Fc coated at 1 or 10 µg/ml, 4E6 monomer at 1 µg/ml, anti-Myc detection
[2] = molecular target: human TRAIL-R2:alpaca Fc (hTRAIL-R2:Fc) (human; Lama pacos (alpaca)); assay: ELISA, hTRAIL-R2:Fc coated at 1 µg/ml, 4E6 monomer at 10 µg/ml, anti-Myc detection
[3] = molecular target: human TRAIL-R2:alpaca Fc (hTRAIL-R2:Fc) (human; Lama pacos (alpaca)); assay: SPR, Biacore X-100, multi-cycle kinetics, 4E6 monomer as analyte on hTRAIL-R2:Fc
[4] = molecular target: human TRAIL-R2:alpaca Fc (hTRAIL-R2:Fc) (human; Lama pacos (alpaca)); assay: ELISA, antigens coated at 1 µg/ml, VHH monomer at 10 µg/ml, detected with anti-Myc 9E10 and anti-mouse IgG HRP, absorbance 450 nm
[5] = molecular target: human TRAIL-R2:alpaca Fc (hTRAIL-R2:Fc) (human; Lama pacos (alpaca)); assay: ELISA, antigen coated at 1 or 10 µg/ml, 4E6 monomer at 1 µg/ml, detected with anti-Myc 9E10 and anti-mouse IgG HRP, OD450

Measured: binding

B1: 4E6 monomer (anti-hTRAIL-R2 VHH antibody/Myc-Tag, expressed in E. coli) (VHH)
VHH: EVQLVESGGGSVQAGDSLRLSCAASGRTFGSIRVGWFRQTPGKEREFVAAINRNDGTTYYADSVKGRFTISRDNAKNTVYMQMASLKPEDTAVYYCAAGLQYNRSADRVPVGAVYWGQGTQVTVSS
notes: also called 4E6 VHH monomer; 4E6 monomeric protein
binds: [1] | [2] | [3] | [4] | [5]
